{
  "sequences": {"note": "Chains of the proteins cited; added tags and fusions are not shown. Residues count along the entry.", "UniProt Q03468, residues 337-509": "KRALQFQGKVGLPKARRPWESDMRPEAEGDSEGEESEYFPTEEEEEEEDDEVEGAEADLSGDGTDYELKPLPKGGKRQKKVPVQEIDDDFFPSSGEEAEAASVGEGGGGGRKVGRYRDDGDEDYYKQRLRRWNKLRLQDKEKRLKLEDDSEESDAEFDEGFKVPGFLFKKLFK"},
  "source": "paper PMC6175878",
  "about": "“ROS-induced R loops trigger a transcription-coupled but BRCA1/2-independent homologous recombination pathway through CSB” (Nature Communications, 2018)",
  "biological_target": "GFP-CSB-AD (CSB acidic domain, 337-509 a.a.) (human) (UniProt Q03468)",
  "experiment": "co-IP; anti-GFP immunoprecipitation (protein G-Sepharose) from lysates of co-transfected Flp-in 293 cells; lysis buffer 150 mM NaCl, 1% NP-40, 4 °C overnight",
  "note": "No constants are given. Whether binding was seen depends on the method and setting. Binding seen in cells or lysates may run through a third protein. Some results given as binding are weak or reduced against the parent protein; the word gives no strength. Sequences can lack the tags named with a protein.",
  "data": [
    {"binder": "Myc-RAD52 (protein, UniProt P43351 1-418) MSGTEEAILGGRDSHPAAGGGSVLCFGQCQYTAEEYQAIQKALRQRLGPEYISSRMAGGGQKVCYIEGHRVINLANEMFGYNGWAHSITQQNVDFVDLNNGKFYVGVCAFVRVQLKDGSYHEDVGYGVSEGLKSKALSLEKARKEAVTDGLKRALRSFGNALGNCILDKDYLRSLNKLPRQLPLEVDLTKAKRQDLEPSVEEARYNSCRPNMALGHPQLQQVTSPSRPSHAVIPADQDCSSRSLSSSAVESEATHQRKLRQKQLQQQFRERMEKQQVRVSTPSAEKSEAAPPAPPVTHSTPVTVSEPLLEKDFLAGVTQELIKTLEDNSEKWAVTPDAGDGVVKPSSRADPAQTSDTLALNNQMVTQNRTPHSVCHQKPQAKSGSWDLQTYSADQRTTGNWESHRKSQDMKKRKYDPS", "values": [
      {"measurement": "binding", "value": "binds"}
    ]}
  ]
}
